Experimental data as given in the supplement of paper PMC10727501.
Structures can show the parent of a compound that is named as a salt. Some of the results follow. Single values are uncertain here, since repeats match poorly.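 Researchers measured free-swimming zebrafish larvae's O-bend response probability to dark flashes (naive: first five; training: remaining flashes of four 60-flash blocks; test: later 60-flash block) and OMR turning toward alternating leftward/rightward LED motion. Six treated larvae were compared to sixty 0.1% DMSO controls, with |SSMD|≥2 marking a hit.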

Legend:
Conditions in all cases: 10 µM; pre-incubation: 30-90 min
[1] = system: Danio rerio larvae (5 dpf, TLF); experiment: OMR-Perf (SSMD vs DMSO vehicle); higher = higher than vehicle (e.g. higher dark-flash O-bend response probability, or better optomotor performance)
[2] = system: Danio rerio larvae (5 dpf, TLF); experiment: Prob-Test (SSMD vs DMSO vehicle); higher = higher than vehicle (e.g. higher dark-flash O-bend response probability, or better optomotor performance)
[3] = system: Danio rerio larvae (5 dpf, TLF); experiment: Prob-Naive (SSMD vs DMSO vehicle); higher = higher than vehicle (e.g. higher dark-flash O-bend response probability, or better optomotor performance)
[4] = system: Danio rerio larvae (5 dpf, TLF); experiment: Prob-Train (SSMD vs DMSO vehicle); higher = higher than vehicle (e.g. higher dark-flash O-bend response probability, or better optomotor performance)

Row | Structure (SMILES) | OMR-Perf [1] | Prob-Test [2] | Prob-Naive [3] | Prob-Train [4]
1 | NS(=O)(=O)c1cc(C(=O)O)c(NCc2ccco2)cc1Cl [Furosemide] | -0.333 | -0.52 | -0.0545 | -0.406
2 | NC(=O)NO [Hydroxyurea] | 0.175 | 0.699 | 0.121 | 0.075
3 | COc1cc(Cc2cnc(N)nc2N)cc(OC)c1OC [Trimethoprim] | -0.302 | 0.15 | 0 | 0.18
4 | CC[C@@H]1/C=C(\C)C[C@H](C)C[C@H](OC)[C@@H]2O[C@@](O)(C(=O)C(=O)N3CCCC[C@H]3C(=O)O[C@H](/C(C)=C/[C@@H]3CC[C@@H](Cl)[C@H](OC)C3)[C@H](C)[C@@H](O)CC1=O)[C@H](C)C[C@@H]2OC [Pimecrolimus] | -0.544 | 0.519 | 0.045 | 0.373
5 | CCC(NC(C)C)C(O)c1ccc(O)c(O)c1.CS(=O)(=O)O (stereo unspecified) [Isoetharine Mesylate] | 0.264 | -0.448 | -0.381 | -0.686
6 | COC(=O)N[C@H](C(=O)N[C@@H](Cc1ccccc1)[C@@H](O)CN(Cc1ccc(-c2ccccn2)cc1)NC(=O)[C@@H](NC(=O)OC)C(C)(C)C)C(C)(C)C.O=S(=O)(O)O [Atazanavir Sulfate] | 0.198 | 0.22 | -0.157 | 0.077
7 | C[N+](C)(C)CCCCCC[N+](C)(C)C.[Br-].[Br-] [Hexamethonium bromide] | -0.369 | 0.62 | -0.288 | 0.928
8 | CC(C)OC(=O)C(C)(C)Oc1ccc(C(=O)c2ccc(Cl)cc2)cc1 [Fenofibrate] | -0.563 | -0.874 | -2.99 | -2.54
9 | Cc1c(C(=O)N2CCOc3ccc(-c4ccc(N)nc4)cc3C2)ccc(S(C)(=O)=O)c1F | -0.19 | 0.406 | 0.538 | 0.0646
10 | CC1(C)O[C@@H]2C[C@H]3[C@@H]4CCC5=CC(=O)CC[C@]5(C)[C@]4(F)[C@H](O)C[C@]3(C)[C@@]2(C(=O)CCl)O1 [Halcinonide] | 0.255 | -0.0863 | 0.351 | 0.00574
11 | Cc1cc(Nc2cc(CN3CCOCC3)c3nc(C)c(Cc4ccc(Cl)cc4F)n3n2)[nH]n1 | -0.542 | 0.241 | -0.152 | 0.296
12 | Cc1cccc(C#Cc2ccccc2)n1 | -0.41 | -1.07 | -0.369 | -1.27
13 | O=P(O)(O)C(O)(Cn1ccnc1)P(=O)(O)O [Zoledronic Acid] | 0.416 | -0.275 | -0.262 | -0.5
14 | CCCCOc1c(C(=O)c2c(F)cc(C)cc2F)cnc2[nH]ncc12 | 0.514 | 0.124 | -0.043 | -0.315
15 | Cn1cc(C=C2C(=O)Nc3cccnc32)c2ccccc21 | 0.205 | -0.987 | -3.97 | -2.36
16 | CC(C)(O)CC(=O)NCCn1ccc2ncnc(Nc3ccc(Oc4cccc(C(F)(F)F)c4)c(Cl)c3)c21 | -0.802 | 0.581 | -0.571 | -0.388
17 | Nc1nc2c(ncn2COCCO)c(=O)[nH]1 [Aciclovir] | 0.0884 | -0.337 | -0.253 | -0.00626
18 | O=C1CCC[C@@H]2[C@@H]3CCC[N+]4([O-])CCC[C@H](CN12)[C@@H]34 (stereo partly specified) [Oxymatrine] | -0.0735 | -0.302 | -0.189 | -0.0573
19 | Cc1[nH]c(=O)c(C#N)cc1-c1ccncc1 [Milrinone] | -0.453 | -0.000449 | -0.81 | 0.182
20 | O=C(NCc1ccccc1)c1csc(Nc2ccncn2)n1 [Thiazovivin] | -0.445 | -0.188 | 0.113 | -0.204
21 | OC[C@H](O)CN1CCN(c2ccccc2)CC1 [Levodropropizine] | -0.228 | -0.436 | -0.851 | -0.209
22 | CC1(C)S[C@@H]2[C@H](NC(=O)C(C(=O)[O-])c3ccccc3)C(=O)N2[C@H]1C(=O)[O-].[Na+].[Na+] (stereo partly specified) [Carbenicillin disodium] | -0.331 | -0.0766 | 0 | -0.24

Row | Structure (SMILES) | OMR-Perf [1] | Prob-Test [2] | Prob-Naive [3] | Prob-Train [4]
23 | O=C(Nc1ncc(SCCN2CCCC2)s1)[C@]1(c2ccc(S(=O)(=O)C3CC3)cc2)C[C@@H]1C1CCCCC1 | -0.592 | -0.68 | 0.302 | -0.88
24 | CC(C)C(=O)Nc1ccc([N+](=O)[O-])c(C(F)(F)F)c1 [Flutamide] | -0.698 | -1.64 | -1.6 | -2.83
25 | Cc1cc(N2CCOCC2)ccc1Nc1nc(NC2CCCCC2)c2[nH]cnc2n1 | -0.0425 | -0.238 | -0.366 | -1.1
26 | N#C/C(=C\c1ccc(O)c(O)c1)C(=O)NCc1ccccc1 [AG-490 (Tyrphostin B42)] | 0.331 | 0.62 | -0.115 | 0.172
27 | COC1=C2C[C@H](C)C[C@@H](OC)[C@H](O)[C@H](C)/C=C(\C)[C@H](OC(N)=O)[C@@H](OC)/C=C/C=C(\C)C(=O)NC(=CC1=O)C2=O [Geldanamycin] | 0.637 | 0.209 | 0.306 | -0.559
28 | CNCC(O)c1ccc(O)c(O)c1 (racemic) [DL-Adrenaline] | 0.202 | -0.0191 | 0.0681 | -0.235
29 | CCCN1CCCC[C@H]1C(=O)Nc1c(C)cccc1C.Cl [Ropivacaine HCl] | -0.00365 | 0.629 | -0.186 | 0.278
30 | CC1CNc2c(cccc2S(=O)(=O)N[C@@H](CCCNC(=N)N)C(=O)N2CC[C@@H](C)C[C@H]2C(=O)O)C1 (stereo partly specified) [Argatroban] | -0.0177 | 0.11 | -0.0225 | 0.352
31 | COCCOc1ccc2c(c1)ncn2-c1ccc2cccc(N3CCC(N)CC3)c2n1 | 0.257 | 0.0373 | 0.173 | -0.0543
32 | Cl.Cl.O=C(O)COCCN1CCN(C(c2ccccc2)c2ccc(Cl)cc2)CC1 (stereo unspecified) [Cetirizine DiHCl] | 0.272 | 0.565 | 0.581 | 0.383
33 | CC(C)CCNC(=O)C(CC(C)C)NC(=O)C1OC1C(=O)O (stereo unspecified) [Loxistatin Acid (E-64C)] | -0.406 | 0.174 | -0.484 | -0.0694
34 | C#Cc1cccc(Nc2ncnc3cc(OCCOC)c(OCCOC)cc23)c1 [Erlotinib HCl (OSI-744)] | 0.458 | -0.0493 | -0.128 | -0.737
35 | CO[C@@H](C(=O)N1Cc2[nH]nc(NC(=O)c3ccc(N4CCN(C)CC4)cc3)c2C1)c1ccccc1 | -0.462 | -0.123 | 0.00409 | 0.273
36 | COc1nc(N)nc2c1ncn2[C@@H]1O[C@H](CO)[C@@H](O)[C@@H]1O [Nelarabine] | 0.265 | 0.435 | 0.459 | 0.126
37 | CCn1cc(C(=O)O)c(=O)c2cc(F)c(N3CCNCC3)cc21 [Norfloxacin (Norxacin)] | -0.25 | 0.0192 | -0.0588 | 0.172
38 | CN(C)CCC(c1ccc(Br)cc1)c1ccccn1.O=C(O)/C=C\C(=O)O (stereo unspecified) [Brompheniramine hydrogen maleate] | 0.727 | 0.253 | -0.0832 | -0.264
39 | COc1c2ccoc2cc2oc(=O)ccc12 [Bergapten] | 0.0767 | -0.115 | -0.419 | -0.207
40 | CCN[C@@H]1C[C@@H](N)[C@@H](O[C@H]2OC(CN)=CC[C@@H]2N)[C@H](O)[C@H]1OC1OC[C@](C)(O)[C@H](NC)[C@@H]1O.CCN[C@@H]1C[C@@H](N)[C@@H](O[C@H]2OC(CN)=CC[C@@H]2N)[C@H](O)[C@H]1OC1OC[C@](C)(O)[C@H](NC)[C@@H]1O.O=S(=O)(O)O.O=S(=O)(O)O.O=S(=O)(O)O.O=S(=O)(O)O.O=S(=O)(O)O (stereo partly specified) [Netilmicin Sulfate] | -0.277 | 0.101 | -0.139 | -0.209
41 | CC1=C(/C=C/C(C)=C/C=C/C(C)=C/C=C/C=C(C)/C=C/C=C(C)/C=C/C2=C(C)CCCC2(C)C)C(C)(C)CCC1 [Beta Carotene] | 0.103 | -0.24 | 0.454 | 0.11
42 | Cl.NC12CC3CC(CC(C3)C1)C2 [Amantadine HCl] | 0.166 | -0.215 | -0.296 | -0.195
43 | O=C(c1cn(Cc2cncn2Cc2ccc(Br)cc2)cc1-c1cccc2ccccc12)N1CCOCC1 | -0.429 | -1.07 | 0.0696 | -0.114
44 | CCc1cccc(CC)c1NC(=O)N1Cc2[nH]nc(NC(=O)c3ccc(N4CCN(C)CC4)cc3)c2C1 | 0.272 | 0.195 | -0.0535 | -0.229

Given with each value named: part of the list above
C#Cc1cccc(Nc2ncnc3cc(OCCOC)c(OCCOC)cc23)c1 [Erlotinib HCl (OSI-744)]
  OMR-Perf [1]: 0.458
  Prob-Test [2]: -0.0493
  Prob-Naive [3]: -0.128
  Prob-Train [4]: -0.737
CO[C@@H](C(=O)N1Cc2[nH]nc(NC(=O)c3ccc(N4CCN(C)CC4)cc3)c2C1)c1ccccc1
  OMR-Perf [1]: -0.462
  Prob-Test [2]: -0.123
  Prob-Naive [3]: 0.00409
  Prob-Train [4]: 0.273
COc1nc(N)nc2c1ncn2[C@@H]1O[C@H](CO)[C@@H](O)[C@@H]1O [Nelarabine]
  OMR-Perf [1]: 0.265
  Prob-Test [2]: 0.435
  Prob-Naive [3]: 0.459
  Prob-Train [4]: 0.126
